The values below come from publication PMC4105440.

Sequences of proteins named here, by UniProt entry; tags and fusion partners are left off.
UniProt P09874: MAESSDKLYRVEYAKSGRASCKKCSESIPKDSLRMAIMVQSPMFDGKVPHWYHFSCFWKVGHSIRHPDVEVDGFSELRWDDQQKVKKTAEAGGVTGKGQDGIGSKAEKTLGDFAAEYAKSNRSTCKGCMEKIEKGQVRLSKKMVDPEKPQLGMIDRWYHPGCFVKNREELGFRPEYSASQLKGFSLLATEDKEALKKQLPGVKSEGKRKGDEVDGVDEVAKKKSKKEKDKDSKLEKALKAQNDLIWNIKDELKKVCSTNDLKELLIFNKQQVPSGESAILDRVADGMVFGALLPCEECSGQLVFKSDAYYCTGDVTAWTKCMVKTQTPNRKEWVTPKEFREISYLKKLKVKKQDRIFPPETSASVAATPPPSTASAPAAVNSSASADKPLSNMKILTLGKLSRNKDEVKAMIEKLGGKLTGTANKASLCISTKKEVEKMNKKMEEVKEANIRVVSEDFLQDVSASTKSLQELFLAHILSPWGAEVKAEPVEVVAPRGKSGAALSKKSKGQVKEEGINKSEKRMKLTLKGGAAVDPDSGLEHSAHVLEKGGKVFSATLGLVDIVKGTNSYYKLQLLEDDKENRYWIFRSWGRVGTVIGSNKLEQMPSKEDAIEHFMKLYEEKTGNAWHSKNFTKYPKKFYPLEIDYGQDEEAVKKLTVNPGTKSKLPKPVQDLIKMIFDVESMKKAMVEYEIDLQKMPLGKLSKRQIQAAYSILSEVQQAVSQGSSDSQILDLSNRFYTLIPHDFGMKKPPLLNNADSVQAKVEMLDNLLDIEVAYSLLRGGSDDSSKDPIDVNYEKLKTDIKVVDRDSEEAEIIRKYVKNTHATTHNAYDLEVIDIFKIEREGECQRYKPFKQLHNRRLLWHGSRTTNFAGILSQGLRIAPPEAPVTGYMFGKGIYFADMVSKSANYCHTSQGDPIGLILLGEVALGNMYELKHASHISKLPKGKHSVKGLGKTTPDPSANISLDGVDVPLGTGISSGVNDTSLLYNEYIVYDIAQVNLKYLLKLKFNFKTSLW
UniProt P08047: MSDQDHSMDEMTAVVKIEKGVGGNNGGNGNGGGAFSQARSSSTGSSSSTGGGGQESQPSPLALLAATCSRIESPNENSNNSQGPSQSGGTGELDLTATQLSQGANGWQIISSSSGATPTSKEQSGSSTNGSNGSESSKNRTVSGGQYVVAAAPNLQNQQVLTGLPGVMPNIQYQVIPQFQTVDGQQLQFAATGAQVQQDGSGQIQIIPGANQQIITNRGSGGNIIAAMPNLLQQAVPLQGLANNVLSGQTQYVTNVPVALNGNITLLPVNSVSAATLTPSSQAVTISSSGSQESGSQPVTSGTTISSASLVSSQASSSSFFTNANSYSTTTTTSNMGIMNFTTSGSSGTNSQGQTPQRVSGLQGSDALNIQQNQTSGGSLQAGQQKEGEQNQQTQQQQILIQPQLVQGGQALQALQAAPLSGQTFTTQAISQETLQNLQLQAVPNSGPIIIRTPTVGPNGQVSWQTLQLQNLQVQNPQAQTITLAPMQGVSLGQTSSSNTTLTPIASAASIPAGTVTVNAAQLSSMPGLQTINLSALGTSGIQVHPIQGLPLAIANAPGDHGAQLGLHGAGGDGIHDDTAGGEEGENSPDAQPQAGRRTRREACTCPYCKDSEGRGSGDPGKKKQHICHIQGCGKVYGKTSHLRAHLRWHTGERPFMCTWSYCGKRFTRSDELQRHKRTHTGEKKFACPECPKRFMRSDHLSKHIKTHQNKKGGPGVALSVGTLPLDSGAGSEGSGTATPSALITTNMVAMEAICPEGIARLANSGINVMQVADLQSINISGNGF

These are yes or no findings as the source states them, for the method shown. Binding seen in cells or lysates may run through a third protein. Some results given as binding are weak or reduced against the parent protein; the word gives no strength.

This test addresses Poly(ADP-ribose)polymerase-1 (human (endogenous in FB1329 fibroblasts)) (UniProt P09874). The test can be described thus: co-IP; unpublished observation; co-immunoprecipitation from FB1329 fibroblast extracts of quiescent, serum-reactivated or PARP-inhibited cells; which protein was precipitated is not told.

As for SP1 (from UniProt P08047 1-785), the binding result is recorded as “binds”.
